We go through 1 molecule from publication PMC8224302.

No constants are given. Whether binding was seen depends on the method and setting. Binding seen in cells or lysates may run through a third protein. Some entries that bind do so weakly or less than the wild type. Sequences can lack the tags named with a protein.

The target in this assay is T1, Bcl-2 antagonist killer 1 (BAK) (human (endogenous in NPC-TW 039 and NPC-TW 076)), Q16611.
T1 chain: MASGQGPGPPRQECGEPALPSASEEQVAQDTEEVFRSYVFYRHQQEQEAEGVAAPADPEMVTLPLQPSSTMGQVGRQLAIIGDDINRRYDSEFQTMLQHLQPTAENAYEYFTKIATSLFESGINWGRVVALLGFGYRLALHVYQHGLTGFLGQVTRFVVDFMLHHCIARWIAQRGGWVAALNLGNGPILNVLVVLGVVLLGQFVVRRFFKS
Nature of the assay: cross-linking; crude homogenates of apigenin-treated (35 μM, 36 h) NPC cells incubated with 5 mM bismaleimidohexane (BMH) in PBS, 30 min, room temperature; then mitochondrial and ER/microsomal fractions, 10% SDS-PAGE, blot with BAX or BAK antibody. The conditions noted are these: remark: other sources report otherwise.

B1: Bcl-2 antagonist killer 1 (BAK), Q16611 1-211 (protein)
chain: T1 chain
For B1, the binding result is “binds”.
